Assay [1] deals with EZH2 K20R mutant, mouse (knock-in) (mouse (endogenous in MEFs)) (UniProt Q61188). The assay is described as follows: co-IP; lysates of primary Ezh2 wild-type and K20R mutant MEFs immunoprecipitated with anti-EZH2, blotted for histone H3, SUZ12 and EED; K20R MEFs also with or without MK2206 (2 uM, 4 hr).
For assay [2], the target named is T1, L3MBTL3, human, endogenous (human (endogenous in 293T)) (UniProt Q96JM7).
T1 sequence: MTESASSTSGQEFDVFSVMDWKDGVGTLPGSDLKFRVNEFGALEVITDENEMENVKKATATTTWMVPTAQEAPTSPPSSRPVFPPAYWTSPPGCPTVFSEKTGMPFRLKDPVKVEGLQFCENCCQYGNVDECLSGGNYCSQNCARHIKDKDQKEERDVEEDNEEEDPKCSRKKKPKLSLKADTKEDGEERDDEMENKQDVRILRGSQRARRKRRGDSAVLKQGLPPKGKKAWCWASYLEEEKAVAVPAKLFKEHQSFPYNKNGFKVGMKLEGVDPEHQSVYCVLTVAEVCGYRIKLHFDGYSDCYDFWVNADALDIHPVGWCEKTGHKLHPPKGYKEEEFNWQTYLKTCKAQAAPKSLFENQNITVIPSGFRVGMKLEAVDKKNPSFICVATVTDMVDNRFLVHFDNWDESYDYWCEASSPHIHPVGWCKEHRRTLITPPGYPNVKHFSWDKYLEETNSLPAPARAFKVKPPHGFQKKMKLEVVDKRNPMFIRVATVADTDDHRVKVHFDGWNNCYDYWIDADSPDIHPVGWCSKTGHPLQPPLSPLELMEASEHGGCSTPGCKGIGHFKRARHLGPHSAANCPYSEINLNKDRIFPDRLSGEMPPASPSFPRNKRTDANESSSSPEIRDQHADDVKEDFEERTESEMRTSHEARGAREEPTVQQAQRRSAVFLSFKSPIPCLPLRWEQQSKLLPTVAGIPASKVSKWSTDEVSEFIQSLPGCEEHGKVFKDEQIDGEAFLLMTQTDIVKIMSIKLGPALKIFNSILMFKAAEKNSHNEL
The assay is described as follows: co-IP; 293T cells transfected with SET7 wild type, SET7 H297A or empty vector for 48 hr (MG132 5 ug/ml for the last 6 hr in Figure 4H); endogenous proteins; lysates immunoprecipitated with anti-L3MBTL3, blotted for EZH2, EZH2-K20me and L3MBTL3.

By UniProt entry, the sequences of proteins in these tests, tags left out. Where a name states a change or a piece, a line headed by the entry shows the natural chain unless it says otherwise.
UniProt Q61188: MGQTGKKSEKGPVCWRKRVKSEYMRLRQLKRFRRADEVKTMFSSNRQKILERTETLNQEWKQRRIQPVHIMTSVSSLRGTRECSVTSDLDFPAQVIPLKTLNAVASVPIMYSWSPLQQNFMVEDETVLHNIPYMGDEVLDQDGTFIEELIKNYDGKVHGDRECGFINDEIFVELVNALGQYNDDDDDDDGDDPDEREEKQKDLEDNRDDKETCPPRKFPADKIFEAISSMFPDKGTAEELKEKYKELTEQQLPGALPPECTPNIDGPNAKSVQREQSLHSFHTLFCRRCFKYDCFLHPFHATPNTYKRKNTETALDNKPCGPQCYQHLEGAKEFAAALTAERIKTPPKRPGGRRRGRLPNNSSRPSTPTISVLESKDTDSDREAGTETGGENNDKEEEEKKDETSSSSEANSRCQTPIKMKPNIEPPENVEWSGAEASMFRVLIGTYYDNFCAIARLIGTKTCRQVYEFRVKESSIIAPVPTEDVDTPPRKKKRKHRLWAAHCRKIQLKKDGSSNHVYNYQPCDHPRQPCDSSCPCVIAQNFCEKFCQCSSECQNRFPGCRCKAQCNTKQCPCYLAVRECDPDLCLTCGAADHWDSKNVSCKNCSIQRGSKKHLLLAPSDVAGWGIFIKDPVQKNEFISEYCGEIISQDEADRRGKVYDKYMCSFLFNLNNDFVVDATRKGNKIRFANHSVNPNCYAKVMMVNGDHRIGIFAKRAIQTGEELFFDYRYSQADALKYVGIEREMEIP
UniProt Q80U70: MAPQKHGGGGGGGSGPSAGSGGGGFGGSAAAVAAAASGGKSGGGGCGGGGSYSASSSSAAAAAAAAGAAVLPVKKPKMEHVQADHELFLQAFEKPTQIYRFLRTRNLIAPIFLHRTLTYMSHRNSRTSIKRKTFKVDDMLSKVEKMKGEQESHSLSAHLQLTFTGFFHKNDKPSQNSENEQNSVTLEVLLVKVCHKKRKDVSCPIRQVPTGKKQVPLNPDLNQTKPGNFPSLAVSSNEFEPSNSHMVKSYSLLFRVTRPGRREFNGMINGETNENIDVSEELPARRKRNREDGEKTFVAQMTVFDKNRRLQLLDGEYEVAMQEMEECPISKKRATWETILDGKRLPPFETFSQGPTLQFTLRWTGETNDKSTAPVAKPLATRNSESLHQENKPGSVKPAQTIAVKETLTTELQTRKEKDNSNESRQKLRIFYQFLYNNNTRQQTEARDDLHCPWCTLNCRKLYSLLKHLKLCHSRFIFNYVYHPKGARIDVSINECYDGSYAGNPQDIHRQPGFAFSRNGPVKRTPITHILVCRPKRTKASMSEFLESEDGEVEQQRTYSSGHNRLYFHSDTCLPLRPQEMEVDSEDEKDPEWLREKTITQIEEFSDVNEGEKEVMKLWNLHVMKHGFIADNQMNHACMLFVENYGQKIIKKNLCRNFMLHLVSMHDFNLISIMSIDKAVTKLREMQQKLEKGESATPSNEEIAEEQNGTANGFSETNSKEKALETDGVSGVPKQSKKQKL
UniProt Q921E6: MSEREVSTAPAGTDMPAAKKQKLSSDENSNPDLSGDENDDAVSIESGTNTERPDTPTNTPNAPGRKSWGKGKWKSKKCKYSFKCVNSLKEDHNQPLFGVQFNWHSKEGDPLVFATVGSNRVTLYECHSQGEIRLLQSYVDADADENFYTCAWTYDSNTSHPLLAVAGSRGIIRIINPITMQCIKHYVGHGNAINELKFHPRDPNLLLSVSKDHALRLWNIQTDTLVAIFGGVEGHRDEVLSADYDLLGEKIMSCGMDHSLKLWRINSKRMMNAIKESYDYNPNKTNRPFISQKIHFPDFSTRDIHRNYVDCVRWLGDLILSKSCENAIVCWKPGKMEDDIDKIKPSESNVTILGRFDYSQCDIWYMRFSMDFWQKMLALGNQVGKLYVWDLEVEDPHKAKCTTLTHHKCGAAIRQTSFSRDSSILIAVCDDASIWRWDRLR

For assay [3], the target named is EZH2 (enhancer of Zeste homolog 2), mouse, wild type (mouse (endogenous in mouse embryos and MEFs)) (UniProt Q61188). The assay is described as follows: co-IP; lysates of primary Ezh2 wild-type and K20R mutant MEFs immunoprecipitated with anti-EZH2, blotted for histone H3, SUZ12 and EED; K20R MEFs also with or without MK2206 (2 uM, 4 hr).
Assay [4] deals with T2, L3MBTL3, mouse (mouse (endogenous in mouse embryos)) (UniProt Q8BLB7).
T2 sequence: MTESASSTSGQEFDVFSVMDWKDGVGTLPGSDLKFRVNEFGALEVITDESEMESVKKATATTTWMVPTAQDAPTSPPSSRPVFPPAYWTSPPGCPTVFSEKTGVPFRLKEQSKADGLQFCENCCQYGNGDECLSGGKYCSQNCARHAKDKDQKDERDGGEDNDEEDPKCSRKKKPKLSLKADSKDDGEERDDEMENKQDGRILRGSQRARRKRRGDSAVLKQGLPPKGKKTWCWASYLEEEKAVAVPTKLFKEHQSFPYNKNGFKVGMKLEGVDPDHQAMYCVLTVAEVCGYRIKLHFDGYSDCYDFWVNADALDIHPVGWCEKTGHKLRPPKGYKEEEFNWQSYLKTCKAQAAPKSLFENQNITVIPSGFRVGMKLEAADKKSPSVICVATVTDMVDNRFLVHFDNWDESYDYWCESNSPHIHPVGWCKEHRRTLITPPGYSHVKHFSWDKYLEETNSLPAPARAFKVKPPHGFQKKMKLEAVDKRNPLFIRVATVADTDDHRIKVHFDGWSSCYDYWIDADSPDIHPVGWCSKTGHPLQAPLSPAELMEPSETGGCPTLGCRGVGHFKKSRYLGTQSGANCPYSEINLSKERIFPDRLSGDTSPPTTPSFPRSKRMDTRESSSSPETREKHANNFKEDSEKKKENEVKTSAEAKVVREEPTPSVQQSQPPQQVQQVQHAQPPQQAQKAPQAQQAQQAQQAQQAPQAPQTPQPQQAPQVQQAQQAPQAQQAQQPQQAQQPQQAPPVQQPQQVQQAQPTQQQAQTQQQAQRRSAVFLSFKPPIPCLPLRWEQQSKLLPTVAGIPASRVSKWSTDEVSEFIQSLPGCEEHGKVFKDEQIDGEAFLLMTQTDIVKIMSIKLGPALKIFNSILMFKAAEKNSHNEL
The assay is described as follows: co-IP; lysates of mouse embryos (E14.5), endogenous proteins; input 1/10 of the lysates; NP40 lysis buffer (0.5% NP40, 50 mM Tris pH 7.5, 150 mM NaCl), Protein A-Sepharose.

Drawing on paper PMC10901513, this text covers binding for five substances.

These are yes or no findings as the source states them, for the method shown. In cells and extracts the contact can be indirect. Some results given as binding are weak or reduced against the parent protein; the word gives no strength.

As to “SUZ12 (suppress of Zeste 12), mouse (from UniProt Q80U70 1-741)”, the binding entry in assay [1] is recorded as “binds”.

On to “EZH2 (enhancer of Zeste homolog 2), human, endogenous (from UniProt Q15910-1 1-746)”, for which the binding result in assay [2] is “binds”.

As for “EED (embryonic ectoderm development), mouse (from UniProt Q921E6 1-441)”, the binding result in assay [3] and in assay [1] was “binds” in each case.

Regarding “K20-methylated EZH2, human, endogenous (from UniProt Q15910-1 1-746)”, the binding entry in assay [2] was “binds”.

As for “EZH2 (enhancer of Zeste homolog 2), mouse, wild type (from UniProt Q61188 1-746)”, the binding entry in assay [4] is reported as “binds”.
